Reference: PubChem BioAssay AID504467 (National Center for Advancing Translational Sciences (NCATS), 2011)
Out of some 330,000 compounds screened, about 7,700 (2.3%) were called active. This list was built around the results that the source calls inconclusive (neither active nor inactive); the mix of calls is not that of the screen. Calls follow the shape of the dose curve; as a rule, active = well fitted inhibition curve with a large enough effect; inconclusive = small, poorly fitted or top-dose-only effect, or effect the other way; inactive = flat fitted curve, though single readings scatter. A potency beside an inconclusive call is a rough fit, not a confirmed value.

Assay: qHTS screen for small molecules that inhibit ELG1-dependent DNA repair in human embryonic kidney (HEK293T) cells expressing luciferase-tagged ELG1; also: nearly all actives have a fitted effect of over 55% in size
Details: HEK293T ELG1-luciferase reporter, luminescence, 16 h, DNA damage induced by 5-fluorouridine; activity change, negative = inhibition: at 46.1 µM (top of the series)
Outline: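 Reporter activity after DNA damage by 5-fluorouridine is monitored. Compound-treated cells incubate 16 hr at 37 °C, then ONE-Glo is added for 30 min before luminescence reading.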
% is scaled to controls: 0 for no effect and ±100 for the full control effect; potency is read from the fitted curve at half-maximal effect.

Compound | activity change, negative = inhibition | Potency
Cc1cc(C)n(CC(=O)N/N=C/c2ccccn2)n1 | inactive: -2.97% | 
COc1ccc(COC(=O)CCS(=O)(=O)c2ccc(C)cc2)cc1F | inactive: 16.1% | 
c1ccc(CN2CCN(CCCNc3ccc4nnc(-c5ccccc5)n4n3)CC2)cc1 |  | active: 18.4 µM
CCCCNC(=O)Nc1nnc(-c2ccc(OCC)cc2)o1 | inactive: 4.49% | 
COc1ccc(-n2cccc2/C=C2\C(=N)N3N=C(c4ccco4)SC3=NC2=O)cc1 |  | inconclusive: 0.0073 µM [inhibitor, full curve]
COc1ccc(N(CC(=O)NCCSC2CCCCC2)S(=O)(=O)c2ccc(C)cc2)cc1 |  | inconclusive: 18.3 µM [inhibitor, single point]
CCOc1ccc(NC(=O)COC(=O)CCC(=O)c2cccs2)cc1 |  | inconclusive: 29.1 µM [activator, single point]
Cc1csc(NC(=O)C2CCCN2C(=O)Oc2ccccc2)n1 (stereo unspecified) | inactive: 20.2% | 
COc1ccc(OC)c(CNC(=O)Cn2nc(C)c3c(C)n(-c4ccc(C)cc4)nc3c2=O)c1 |  | active: 8.2 µM
Cc1nnc2sc(-c3ccc(-c4ccc(Cl)c(C(F)(F)F)c4)o3)nn12 |  | inconclusive: 14.6 µM [inhibitor, partial curve, poor fit]
Cc1ccc(Oc2ccc(-c3nnc(-c4ccccc4)o3)cc2[N+](=O)[O-])cc1C | inactive: -7.97% | 
COc1cc(-c2nc(CCNC(=O)c3ccco3)cs2)cc(OC)c1OC |  | inconclusive: 23.1 µM [inhibitor, partial curve, poor fit]
Cc1sc2ncnc(NCc3ccco3)c2c1C |  | inconclusive: 11.6 µM [inhibitor, partial curve]
Cc1ccc2nc3sc(-c4nnc(-c5ccccc5[N+](=O)[O-])o4)c(N)c3cc2c1 |  | inconclusive: 23.1 µM [activator, single point]
Clc1cccc(-c2nn3c(Cn4cnc5ccccc54)nnc3s2)c1 |  | inconclusive: 29.1 µM [inhibitor, single point]
NC(=S)N/N=C/c1coc2ccc(O)cc2c1=O |  | inconclusive: 25.9 µM [inhibitor, single point]
O=C(c1ccc(S(=O)(=O)Nc2ccccc2)cc1)N1CCC1 | inactive: -4.3% | 
COc1ccc(-c2csc(N3CCN(c4cc(C)nc5ccccc45)CC3)n2)cc1OC |  | active: 8.2 µM
O=C1CC/C=C\C[C@@H](CC(=O)N(CCO)Cc2ccccc2)C(=O)NC[C@@H](c2ccccc2)O1 |  | inconclusive: 18.3 µM [activator, single point]
COCCCn1c(SCC(=O)Nc2ccccc2F)nnc1-c1ccoc1C | inactive: 0.336% | 
CC(C)OCCCNC(=O)c1ccc2c(c1)S(=O)(=O)c1ccccc1C2=O | inactive: -25% | 
N#C/C(=C/c1ccc(N2CCOCC2)o1)c1ccc(Cl)cc1 |  | inconclusive: 20.6 µM [activator, partial curve]
O=C(NCCC1=CCCCC1)c1ccc(F)cc1 |  | inconclusive: 2.31 µM [activator, partial curve]
COc1ccc(COc2cc(-c3cccc(OC)c3)nc3ccc(NC(=O)C(C)C)cc23)cc1 |  | inconclusive: 6.51 µM [inhibitor, single point]

Compound | activity change, negative = inhibition | Potency
Fc1ccccc1/C=C1\CCCC2=C1NC(=S)NC2c1ccccc1F (stereo unspecified) |  | inconclusive: 29.1 µM [inhibitor, single point]
CCn1nnnc1SCC(=O)c1ccc2c(c1)OCCO2 |  | inconclusive: 10 µM [activator, single point]
NC(=O)c1cccnc1Nc1ccccc1Cl |  | inconclusive: 29.1 µM [activator, single point]
O=C(COC(=O)COc1ccc(Cl)cc1)NCc1cccs1 |  | inconclusive: 20.6 µM [activator, single point]
CN1C(=O)[C@@H]2C[C@@]3([C@@]45C[C@H]6C(=O)N(C)[C@@H](Cc7ccccc7)C(=O)N6[C@@H]4Nc4ccccc45)c4ccccc4N[C@H]3N2C(=O)[C@@H]1Cc1ccccc1 |  | inconclusive: 25.1 µM [activator, partial curve, poor fit]
CC(=O)c1ccc(OCC(O)CN2CCN(c3ccc(F)cc3)CC2)cc1 (stereo unspecified) |  | inconclusive: 23.1 µM [inhibitor, partial curve, poor fit]
COc1ccccc1N1CCN(C(=O)c2cc(C(C)(C)C)oc2C)CC1 |  | inconclusive: 18.3 µM [inhibitor, partial curve, poor fit]
O=C(NCc1cccc(F)c1)C1CCC(=O)N(CC2CCCCC2)C1 (stereo unspecified) | inactive: 0.557% | 
Cc1nc(NC(=O)C2CC2)sc1C(=O)Nc1ccccc1Cl |  | inconclusive: 16.4 µM [activator, partial curve]
C=CCSc1nc2sc3c(c2c(=O)n1CC)CCc1ccccc1-3 | inactive: -23.8% | 
COc1ccccc1NC(=O)Cn1nnc(-c2ccccc2NC(=O)c2ccco2)n1 | inactive: 13.8% | 
Cc1ccc(C2C(C#N)=C(N)Oc3n[nH]c(-c4cccs4)c32)s1 (stereo unspecified) |  | inconclusive: 2.59 µM [activator, partial curve]
COc1ccc(C(=O)Nc2ccccc2C(=O)NC(Cc2ccc(O)cc2)C(=O)NNC(=O)c2ccc(C)cc2)cc1 (stereo unspecified) |  | active: 8.2 µM
O=C(NC1CC1)C1CCN(c2ccc(S(=O)(=O)N3CCOCC3)cc2Cl)CC1 | inactive: -9.99% | 
OC(CNCc1ccc(F)cc1)(c1ccc(F)cc1)c1ccc(F)cc1 | inactive: -19.7% | 
Cc1nc2c(ccc3nc(NC(=O)Cc4cccc5ccccc45)sc32)s1 |  | active: 5.17 µM
CCCCn1c(SCC(=O)Nc2cc(C)on2)nc2c1c(=O)n(C)c(=O)n2C |  | inconclusive: 7.31 µM [inhibitor, partial curve, poor fit]
CCOC(=O)c1sc(=NC(=O)c2c(F)cccc2F)n(C)c1C |  | inconclusive: 20.6 µM [activator, partial curve]
CC(C)(C)c1cc(N)n(-c2ccc(C(=O)O)cc2)n1 | inactive: -10.1% | 
CCCCNc1c2c(nc3c(-c4ccccc4)c(C)nn13)CCC2 |  | inconclusive: 11.6 µM [inhibitor, partial curve]
O=C(OCCN1CCCCC1)c1ccc(O)cc1 |  | inconclusive: 25.9 µM [activator, partial curve, poor fit]
COC(=O)CSc1ccc2nnc(-c3ccc(OC)c(OC)c3)n2n1 |  | inconclusive: 7.31 µM [activator, partial curve, poor fit]
CC(=O)c1c(C)n(-c2ccc(N(C)C)cc2)c2ccc(OCC(N)=O)cc12 |  | inconclusive: 23.1 µM [inhibitor, partial curve, poor fit]
Cc1ccc2c(Cl)c(C)c(N3CCCCC3)nc2n1 | inactive: 11.9% | 

Compound | activity change, negative = inhibition | Potency
Cc1ccc(O)c(C(=O)c2cnn(C(=O)COc3ccc(Cl)cc3)c2)c1 |  | active: 16.4 µM
C#CCOCCOCCOCCNc1nc(N2CCN(C(=O)Cn3cc(CCCN=C(N)N)nn3)CC2)nc(N2CCN(C(=O)[C@H]([C@@H](C)CC)n3cc(CCCN=C(N)N)nn3)CC2)n1 |  | inconclusive: 29.1 µM [activator, single point]
O=C(O)CC(C(=O)O)n1nc(-c2ccccc2)cc1-c1ccccc1 (stereo unspecified) |  | inconclusive: 18.4 µM [activator, partial curve]
CCOC(=O)Cc1cc(=O)n2[nH]c(-c3ccccc3)cc2n1 |  | inconclusive: 18.4 µM [activator, single point]
CC(C)(C)C(=O)N(Cc1ccc(Cl)cc1)Cc1cccnc1 |  | inconclusive: 32.6 µM [inhibitor, single point]
COc1ccc(NC(=O)c2cncc(Br)c2)cc1S(=O)(=O)N1CCCCC1 |  | active: 14.6 µM
Cc1ccccc1CN1C(=O)c2ccccc2S1(=O)=O | inactive: -2.58% | 
Cc1ccc2nc(CCl)[n+]([O-])c(-c3ccccc3)c2c1 | inactive: 0.912% | 
Cc1cc2cc(C(c3nnnn3C3CCCC3)N(Cc3cccnc3)Cc3ccco3)c(=O)[nH]c2cc1C (stereo unspecified) |  | active: 18.4 µM
Cc1ccc(-c2nc(NCCN3CCOCC3)c3ccccc3n2)cc1 |  | inconclusive: 20.6 µM [inhibitor, single point]
O=C(Nc1ccc(C2CC2(Cl)Cl)cc1)c1cccc([N+](=O)[O-])c1 (stereo unspecified) |  | inconclusive: 5.01 µM [activator, partial curve, poor fit]
COc1ccc(NC(=O)CSCC(=O)Nc2ccc(C)c(S(=O)(=O)N3CCCCCC3)c2)cc1 |  | inconclusive: 23.1 µM [inhibitor, partial curve, poor fit]
O=C(O)c1cccc(NC(=O)c2ccc3c(c2)C(=O)N(Cc2ccco2)C3=O)c1 | inactive: 1.94% | 
CCOc1ccc(-n2c(=S)sc3c(=O)[nH]c(SCC(=O)C(C)(C)C)nc32)cc1 |  | active: 14.6 µM
O=C(O)c1cc(NN=C2c3ccccc3-c3ccccc32)ccc1Cl |  | inconclusive: 29.1 µM [activator, single point]
CN(C)S(=O)(=O)c1cccc(NC(=O)C2Cc3ccccc3CN2C(=O)c2ccco2)c1 (stereo unspecified) | inactive: 4.27% | 
COc1ccc(OC)c(S(=O)(=O)NCc2csc(-c3ccccc3)n2)c1 | inactive: -1.97% | 
NC12NC(=O)C3(O)C4C5CC(C6C5C3C61)C42 (stereo unspecified) | inactive: -10.4% | 
COc1ccc(C(=O)N/N=C/c2ccc(OC)c(CSc3ccccn3)c2)cc1 |  | inconclusive: 23.1 µM [inhibitor, single point]
COc1cc(Cl)cc2c1Sc1ccccc1/C2=C/CCN(C)C |  | inconclusive: 18.4 µM [inhibitor, partial curve]
COc1ccc(C=O)cc1Cn1c(C)cc(C)c(C#N)c1=O | inactive: 8.76% | 
CCc1nn2c(=O)cc(COC(=O)c3cc(Cl)c(OC)c(OC)c3)nc2s1 | inactive: -4.81% | 
COCCNc1c2c(nc3c(-c4ccccc4)c(C)nn13)CCC2 |  | inconclusive: 18.3 µM [inhibitor, single point]

6 compounds from above, ordered by molecular weight, low to high.
Compound | activity change, negative = inhibition | Potency
COCCNc1c2c(nc3c(-c4ccccc4)c(C)nn13)CCC2 |  | inconclusive: 18.3 µM [inhibitor, single point]
O=C(O)CC(C(=O)O)n1nc(-c2ccccc2)cc1-c1ccccc1 (stereo unspecified) |  | inconclusive: 18.4 µM [activator, partial curve]
Cc1ccc(-c2nc(NCCN3CCOCC3)c3ccccc3n2)cc1 |  | inconclusive: 20.6 µM [inhibitor, single point]
O=C(O)c1cccc(NC(=O)c2ccc3c(c2)C(=O)N(Cc2ccco2)C3=O)c1 | inactive: 1.94% | 
COc1ccc(C(=O)N/N=C/c2ccc(OC)c(CSc3ccccn3)c2)cc1 |  | inconclusive: 23.1 µM [inhibitor, single point]
Cc1cc2cc(C(c3nnnn3C3CCCC3)N(Cc3cccnc3)Cc3ccco3)c(=O)[nH]c2cc1C (stereo unspecified) |  | active: 18.4 µM
